These are yes or no findings as the source states them, for the method shown. Binding seen in cells or lysates may run through a third protein. Some binding calls cover weakened binding; strength is not graded here.
Biological target: T1, Myristoylated alanine-rich C kinase substrate (MARCKS) (mouse (endogenous in E18.5 mouse brain)) (UniProt P26645)
T1 sequence: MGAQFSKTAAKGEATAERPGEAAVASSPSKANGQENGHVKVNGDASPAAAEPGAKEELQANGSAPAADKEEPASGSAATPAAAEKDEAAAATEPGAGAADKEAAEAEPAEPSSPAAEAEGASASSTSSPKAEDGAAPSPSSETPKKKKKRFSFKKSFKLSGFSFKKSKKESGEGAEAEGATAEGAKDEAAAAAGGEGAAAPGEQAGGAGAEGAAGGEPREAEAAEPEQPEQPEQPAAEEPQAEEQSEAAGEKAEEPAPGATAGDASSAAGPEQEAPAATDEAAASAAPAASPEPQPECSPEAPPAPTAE
Test: co-IP; MARCKS immunoprecipitated from E18.5 mouse whole-brain lysates with anti-MARCKS antibodies (SC6455) on protein A/G agarose (Pierce Crosslink IP kit, crosslinking omitted); blot for CDC42

Amino acid sequences for entries named in this document (tags omitted).
UniProt P60766: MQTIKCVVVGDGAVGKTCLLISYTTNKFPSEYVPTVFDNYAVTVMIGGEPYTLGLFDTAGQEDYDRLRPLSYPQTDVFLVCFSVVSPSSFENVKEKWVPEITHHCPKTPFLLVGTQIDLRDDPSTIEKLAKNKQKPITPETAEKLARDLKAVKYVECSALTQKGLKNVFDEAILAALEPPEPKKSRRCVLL

For “Cell division cycle 42 (CDC42) (from UniProt P60766 1-191)”, the binding was “binds”.

From paper PMC6125478
